{"source": "patent US12697330B2", "about": "“Therapeutic methods using vadadustat” (Akebia Therapeutics, Inc., priority 2021, dated 2026)", "tested_on": "hemodialysis subjects", "assay": "Main Study: vadadustat versus epoetin alfa in hemodialysis subjects (Hb, ESA/RBC rescue, EPO levels)", "format": "in vivo, human", "excerpt": "The primary efficacy endpoint was to assess the mean change in Hb between baseline and the PEP (Weeks 10 to 12) in hemodialysis subjects.\nThe first key secondary efficacy endpoint was the proportion of subjects with Hb values within the target range (10.0 to 11.0 g/dL, inclusive) at the PEP (Weeks 10 to 12).\nThe second key secondary endpoint was the mean change in Hb from PEP (average Hb from Weeks 10 to 12) to the SEP (average Hb from Weeks 18 to 20) for subjects who transitioned to TIW vadadustat dosing. In the Main Study, the change in Hb from PEP to SEP for the 17 subjects who switched from QD to TIW was −0.4 g/dL.", "data": [{"smiles": "O=C(O)CNC(=O)c1ncc(-c2cccc(Cl)c2)cc1O", "note": "[vadadustat, {[5-(3-chlorophenyl)-3-hydroxypyridine-2-carbonyl]amino}acetic acid]", "values": [{"measurement": "EPO levels", "setting": "high epoetin stratum", "value": "no particular change"}, {"measurement": "EPO levels in Week 1 and Week 1+1 day", "setting": "low epoetin stratum", "value": "Dose-dependent increase"}, {"measurement": "increase in EPO levels relative to physiological range", "setting": "low epoetin stratum", "value": "within what was considered to be physiological range"}]}]}
